2 substances from PMC7940618, “Specific inhibition of the Survivin–CRM1 interaction by peptide-modified molecular tweezers” (Nature Communications, 2021) can be followed below.

Amino acid sequences for entries named in this document (tags omitted). A change or cut given only in a name is not applied to a line headed by its entry. Chains listed by the source or under a name are the forms on record and can include a tag or linker. Residues count along the entry.
UniProt O15392: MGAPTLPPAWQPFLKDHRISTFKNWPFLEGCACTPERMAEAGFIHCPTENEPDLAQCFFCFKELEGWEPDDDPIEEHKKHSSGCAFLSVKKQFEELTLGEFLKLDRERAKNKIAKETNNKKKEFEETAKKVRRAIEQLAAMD
GST-Survivin120: residues 1-120 of O15392
GST-Survivin120-K90/103T (O15392, form named): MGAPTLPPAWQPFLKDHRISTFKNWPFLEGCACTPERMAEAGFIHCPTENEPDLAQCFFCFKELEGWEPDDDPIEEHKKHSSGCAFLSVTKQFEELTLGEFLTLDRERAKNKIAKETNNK
UniProt O14980: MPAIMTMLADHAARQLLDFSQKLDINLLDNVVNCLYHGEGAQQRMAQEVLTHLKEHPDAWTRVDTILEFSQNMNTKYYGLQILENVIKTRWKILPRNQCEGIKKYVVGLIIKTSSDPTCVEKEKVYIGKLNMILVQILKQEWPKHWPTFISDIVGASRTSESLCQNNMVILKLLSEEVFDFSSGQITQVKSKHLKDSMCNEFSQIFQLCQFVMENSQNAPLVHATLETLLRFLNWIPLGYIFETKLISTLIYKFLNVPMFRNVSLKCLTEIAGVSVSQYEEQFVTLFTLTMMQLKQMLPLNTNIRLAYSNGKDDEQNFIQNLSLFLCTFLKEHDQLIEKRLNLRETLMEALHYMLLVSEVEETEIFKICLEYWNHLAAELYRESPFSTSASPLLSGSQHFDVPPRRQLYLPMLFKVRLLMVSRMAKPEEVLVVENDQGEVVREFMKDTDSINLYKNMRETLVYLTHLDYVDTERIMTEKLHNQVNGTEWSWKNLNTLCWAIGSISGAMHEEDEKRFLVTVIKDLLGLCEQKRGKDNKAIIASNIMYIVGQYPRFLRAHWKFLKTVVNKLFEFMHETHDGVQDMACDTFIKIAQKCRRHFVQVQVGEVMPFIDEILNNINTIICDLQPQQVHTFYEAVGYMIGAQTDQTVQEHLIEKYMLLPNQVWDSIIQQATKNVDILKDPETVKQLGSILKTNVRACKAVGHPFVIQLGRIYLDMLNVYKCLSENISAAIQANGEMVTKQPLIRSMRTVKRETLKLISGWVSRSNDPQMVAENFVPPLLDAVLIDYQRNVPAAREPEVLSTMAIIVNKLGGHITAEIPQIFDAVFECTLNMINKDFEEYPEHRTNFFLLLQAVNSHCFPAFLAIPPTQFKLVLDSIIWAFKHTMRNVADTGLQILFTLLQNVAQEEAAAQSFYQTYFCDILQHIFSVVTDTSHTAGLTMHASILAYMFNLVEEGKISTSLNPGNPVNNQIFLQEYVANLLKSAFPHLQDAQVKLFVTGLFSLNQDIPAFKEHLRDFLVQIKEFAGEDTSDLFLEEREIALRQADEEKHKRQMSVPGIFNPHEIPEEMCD

No constants are given. Whether binding was seen depends on the method and setting. For part of these data: In cells and extracts the contact can be indirect. Some results given as binding are weak or reduced against the parent protein; the word gives no strength.

One assay addresses GST-Survivin120 (human) (UniProt O15392). In words: pull-down; GST-Survivin120 or GST-Survivin120-K90/103T on GSH beads, with no ligand or 50 µM tweezer conjugate, then CRM1, RanQ69L and 2 mM dGTP; PBS pH 7.4, 1 mM DTT, Triton X-100, room temperature; blot for CRM1 and GST; both purified.
Assay [1] addresses GST-Survivin120-K90/103T (human) (UniProt O15392). The description is as above.
In another assay the target is GST-CRM1 (UniProt O14980). As to the kind of experiment: pull-down; GST-CRM1 on GSH-Sepharose beads, 293T lysate with Survivin142-HA, with RanQ69L and 2 mM dGTP; PBS pH 7.4, 1 mM DTT, Triton X-100, room temperature; blot for HA and GST; only the target purified.

Regarding “CRM1 (recombinant, prey protein) (from UniProt O14980 1-1071) (receptor)”, the binding entry (in the assay with GST-Survivin120 (human); in assay [1]) was “binds” throughout.

Regarding “Survivin142-HA (from UniProt O15392 1-142)”, the binding entry with GST-CRM1 is “binds”.
